Article PMC4678824
Results are given in words; binding and its absence hold for the method and conditions named.

Target: full-length human GEN1 protein (human) (UniProt Q17RS7)
Assay: condition: ~5 μg in 50 μl (size exclusion); ~15 μg in 150 μl (glycerol gradient); SEC + other: glycerol gradient sedimentation; Superdex 200 PC 3.2/30 at 4°C and 15-35% glycerol gradient (42,000 rpm, 16 h, 4°C), both in 40 mM Tris-HCl pH 7.5, 250 mM NaCl, 10% glycerol, 0.1 mM EDTA, 0.05% NP-40, 1 mM DTT; GEN1 detected by western blotting; native molecular weight calculated from Stokes radius and S-value; no DNA present; both purified

B1: full-length human GEN1 protein (enzyme, UniProt Q17RS7 1-908)
chain: MGVNDLWQILEPVKQHIPLRNLGGKTIAVDLSLWVCEAQTVKKMMGSVMKPHLRNLFFRISYLTQMDVKLVFVMEGEPPKLKADVISKRNQSRYGSSGKSWSQKTGRSHFKSVLRECLHMLECLGIPWVQAAGEAEAMCAYLNAGGHVDGCLTNDGDTFLYGAQTVYRNFTMNTKDPHVDCYTMSSIKSKLGLDRDALVGLAILLGCDYLPKGVPGVGKEQALKLIQILKGQSLLQRFNRWNETSCNSSPQLLVTKKLAHCSVCSHPGSPKDHERNGCRLCKSDKYCEPHDYEYCCPCEWHRTEHDRQLSEVENNIKKKACCCEGFPFHEVIQEFLLNKDKLVKVIRYQRPDLLLFQRFTLEKMEWPNHYACEKLLVLLTHYDMIERKLGSRNSNQLQPIRIVKTRIRNGVHCFEIEWEKPEHYAMEDKQHGEFALLTIEEESLFEAAYPEIVAVYQKQKLEIKGKKQKRIKPKENNLPEPDEVMSFQSHMTLKPTCEIFHKQNSKLNSGISPDPTLPQESISASLNSLLLPKNTPCLNAQEQFMSSLRPLAIQQIKAVSKSLISESSQPNTSSHNISVIADLHLSTIDWEGTSFSNSPAIQRNTFSHDLKSEVESELSAIPDGFENIPEQLSCESERYTANIKKVLDEDSDGISPEEHLLSGITDLCLQDLPLKERIFTKLSYPQDNLQPDVNLKTLSILSVKESCIANSGSDCTSHLSKDLPGIPLQNESRDSKILKGDQLLQEDYKVNTSVPYSVSNTVVKTCNVRPPNTALDHSRKVDMQTTRKILMKKSVCLDRHSSDEQSAPVFGKAKYTTQRMKHSSQKHNSSHFKESGHNKLSSPKIHIKETEQCVRSYETAENEESCFPDSTKSSLSSLQCHKKENNSGTCLDSPLPLRQRLKLRFQST
  binding: no binding
